From patent publication US8940793B2, “4-[(haloalkyl)(dimethyl)ammonio]butanoates and use thereof in the treatment of cardiovascular disease” (JSC Grindeks, priority 2011, dated 2015)
At least one structure is not confirmed: it was looked up by name or label, or the drawing left a doubt.

Tested on: isolated rat heart
Assay: Isolated rat heart infarction study after oral treatment (cardioprotective activity)
Type: in vivo, Wistar rats
Settings: 20 mg/kg p.o.; isolated rat heart infarction model
Experimental: Fifty male, 10 weeks old Wistar rats weighing 200-250 g were housed under standard conditions (21-23° C., 12 h light-dark cycle) with unlimited access to food (R3 diet, Lactamin AB, Sweden) and water.
Rats were adapted to local conditions for two weeks before the start of treatment. Meldonium dihydrate at a dose of 20 mg/kg, gamma-butyrobetaine at a dose of 20 mg/kg and 4-[(chloromethyl)(dimethyl) ammonio]butanoate at dose of 20 mg/kg were administered p.o. daily for 8 weeks. Control rats received water.
The isolated rat heart experiment was performed essentially as described earlier (Liepinsh et al., J. Cardiovasc. Pharmacol. 2006; 48(6):314-9). Twenty-four hours after the last drug administration hearts were excised and retrogradely perfused via the aorta at a constant pressure with oxygenated Krebs-Henseleit buffer at 37° C. The heart rate, left ventricle end-diastolic pressure and left ventricle developed pressure were continuously recorded. Coronary flow was measured using an ultrasound flow detector (HSE) and the PowerLab 8/30 system from ADInstruments. […] Computerized planemetric analysis of Sony A900 photographs was performed using Image-Pro Plus 6.3 software to determine the area at risk and area of necrosis expressed as a % of the left ventricle. […]

## C[N+](C)(C)NCCC(=O)[O-] [Meldonium dihydrate, 3-(2,2,2-Trimethylhydrazinium) propionate dihydrate, reference compound]
  Therapeutical (cardioprotective) effect, in words: no therapeutical effect
